Results on two molecules are retold here after PMC11604978.

These are yes or no findings as the source states them, for the method shown. Binding seen in cells or lysates may run through a third protein. Some entries that bind do so weakly or less than the wild type.

Assay [1] has as its target T1, VE-cadherin (mouse) (mouse (endogenous in brain and primary brain ECs)) (UniProt P55284).
T1 sequence: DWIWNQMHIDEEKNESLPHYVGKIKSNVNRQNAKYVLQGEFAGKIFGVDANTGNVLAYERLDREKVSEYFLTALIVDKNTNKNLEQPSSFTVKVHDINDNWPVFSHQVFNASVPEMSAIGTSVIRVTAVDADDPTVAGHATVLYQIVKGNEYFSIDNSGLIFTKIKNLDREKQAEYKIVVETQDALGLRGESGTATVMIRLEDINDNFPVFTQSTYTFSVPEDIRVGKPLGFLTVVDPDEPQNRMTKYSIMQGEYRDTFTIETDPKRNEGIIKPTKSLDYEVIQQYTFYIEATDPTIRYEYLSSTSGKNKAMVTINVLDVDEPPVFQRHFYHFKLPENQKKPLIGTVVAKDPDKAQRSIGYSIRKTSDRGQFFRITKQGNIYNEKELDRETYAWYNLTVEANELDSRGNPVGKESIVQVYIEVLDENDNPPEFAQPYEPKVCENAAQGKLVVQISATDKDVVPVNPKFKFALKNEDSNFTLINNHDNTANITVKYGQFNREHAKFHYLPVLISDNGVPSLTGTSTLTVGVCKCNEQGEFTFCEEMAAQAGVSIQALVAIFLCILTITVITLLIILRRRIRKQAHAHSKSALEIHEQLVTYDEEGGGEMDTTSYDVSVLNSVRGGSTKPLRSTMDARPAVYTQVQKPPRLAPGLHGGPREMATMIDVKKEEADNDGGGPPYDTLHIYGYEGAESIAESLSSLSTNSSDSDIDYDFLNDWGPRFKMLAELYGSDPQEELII
The assay can be described thus: proximity ligation; fixed primary mouse brain ECs (pmBECs) from control animals; signal diminished in pmBECs from Flrt2 endothelial knock-out mice.

In assay [2] the target is T1, VE-cadherin (mouse) (mouse (endogenous in brain and primary brain ECs)). As to the kind of experiment: co-IP; wild-type mouse brain lysates (25 mM Tris HCl pH 7.4, 150 mM NaCl, 5 mM EDTA, 1% NP-40) incubated with goat anti-VE-cadherin antibody or IgG control, Dynabeads Protein G; blot for FLRT2 and VE-cadherin.
Assay [3] concerns the target T2, VE-cadherin (human (endogenous in HUVEC)) (UniProt P33151).
T2 sequence: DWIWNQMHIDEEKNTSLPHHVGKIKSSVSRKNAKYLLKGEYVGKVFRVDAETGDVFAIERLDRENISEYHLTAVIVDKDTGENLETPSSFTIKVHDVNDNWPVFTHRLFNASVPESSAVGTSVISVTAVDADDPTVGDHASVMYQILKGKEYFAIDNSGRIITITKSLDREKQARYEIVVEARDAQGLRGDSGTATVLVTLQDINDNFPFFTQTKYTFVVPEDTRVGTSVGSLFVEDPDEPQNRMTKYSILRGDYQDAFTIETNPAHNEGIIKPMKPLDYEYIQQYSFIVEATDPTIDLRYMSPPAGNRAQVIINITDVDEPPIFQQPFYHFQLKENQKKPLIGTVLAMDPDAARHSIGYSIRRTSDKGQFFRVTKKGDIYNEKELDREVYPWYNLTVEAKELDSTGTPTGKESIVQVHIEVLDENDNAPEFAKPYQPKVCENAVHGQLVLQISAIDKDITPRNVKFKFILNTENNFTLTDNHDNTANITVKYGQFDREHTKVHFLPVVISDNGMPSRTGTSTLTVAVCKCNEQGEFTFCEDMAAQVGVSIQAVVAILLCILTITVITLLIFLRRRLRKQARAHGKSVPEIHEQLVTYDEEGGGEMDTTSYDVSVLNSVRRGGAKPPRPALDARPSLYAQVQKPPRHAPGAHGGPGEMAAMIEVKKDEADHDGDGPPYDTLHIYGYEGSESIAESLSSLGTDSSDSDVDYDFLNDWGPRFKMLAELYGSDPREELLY
As to the kind of experiment: proximity ligation; fixed, permeabilised HUVECs on gelatin-coated coverslips; probe-conjugated goat anti-FLRT2 and anti-VE-cadherin primary antibody with PLA probe MINUS; control without VE-cadherin primary antibody.

For assay [4], the target named is T2, VE-cadherin (human (endogenous in HUVEC)). As to the kind of experiment: co-IP; HUVEC lysates (IP buffer: 50 mM Tris/HCl pH 7.4, 150 mM NaCl, 1% NP-40, 0.5% sodium deoxycholate, 1 mM EDTA) incubated with mouse anti-VE-cadherin antibody or IgG control, protein G-agarose; blot for FLRT2.

B1: Fibronectin Leucine Rich Transmembrane protein (FLRT) 2 (mouse) (protein, UniProt Q8BLU0 36-660)
chain: CPSVCRCDRNFVYCNERSLTSVPLGIPEGVTVLYLHNNQINNAGFPAELHNVQSVHTVYLYGNQLDEFPMNLPKNVRVLHLQENNIQTISRAALAQLLKLEELHLDDNSISTVGVEDGAFREAISLKLLFLSKNHLSSVPVGLPVDLQELRVDENRIAVISDMAFQNLTSLERLIVDGNLLTNKGIAEGTFSHLTKLKEFSIVRNSLSHPPPDLPGTHLIRLYLQDNQINHIPLTAFANLRKLERLDISNNQLRMLTQGVFDHLSNLKQLTARNNPWFCDCSIKWVTEWLKYIPSSLNVRGFMCQGPEQVRGMAVRELNMNLLSCPTTTPGLPVFTPAPSTVSPTTQSPTLSVPSPSRGSVPPAPTPSKLPTIPDWDGRERVTPPISERIQLSIHFVNDTSIQVSWLSLFTVMAYKLTWVKMGHSLVGGIVQERIVSGEKQHLSLVNLEPRSTYRICLVPLDAFNYRTVEDTICSEATTHASYLNNGSNTASSHEQTTSHSMGSPFLLAGLIGGAVIFVLVVLLSVFCWHMHKKGRYTSQKWKYNRGRRKDDYCEAGTKKDNSILEMTETSFQIVSLNNDQLLKGDFRLQPIYTPNGGINYTDCHIPNNMRYCNSSVPDLEHCHT
B1: the binding result in assay [1] and in assay [2] was “binds” each time.

B2: Fibronectin Leucine Rich Transmembrane protein (FLRT) 2 (protein, UniProt O43155 36-660)
chain: CPSVCRCDRNFVYCNERSLTSVPLGIPEGVTVLYLHNNQINNAGFPAELHNVQSVHTVYLYGNQLDEFPMNLPKNVRVLHLQENNIQTISRAALAQLLKLEELHLDDNSISTVGVEDGAFREAISLKLLFLSKNHLSSVPVGLPVDLQELRVDENRIAVISDMAFQNLTSLERLIVDGNLLTNKGIAEGTFSHLTKLKEFSIVRNSLSHPPPDLPGTHLIRLYLQDNQINHIPLTAFSNLRKLERLDISNNQLRMLTQGVFDNLSNLKQLTARNNPWFCDCSIKWVTEWLKYIPSSLNVRGFMCQGPEQVRGMAVRELNMNLLSCPTTTPGLPLFTPAPSTASPTTQPPTLSIPNPSRSYTPPTPTTSKLPTIPDWDGRERVTPPISERIQLSIHFVNDTSIQVSWLSLFTVMAYKLTWVKMGHSLVGGIVQERIVSGEKQHLSLVNLEPRSTYRICLVPLDAFNYRAVEDTICSEATTHASYLNNGSNTASSHEQTTSHSMGSPFLLAGLIGGAVIFVLVVLLSVFCWHMHKKGRYTSQKWKYNRGRRKDDYCEAGTKKDNSILEMTETSFQIVSLNNDQLLKGDFRLQPIYTPNGGINYTDCHIPNNMRYCNSSVPDLEHCHT
Turning to B2, the binding result in assay [3] and in assay [4] was “binds” throughout.
